One series deals with cathepsins B, S, and H. Put plainly: Proteolytic mapping (ProtMap) of native and citrullinated autoantigens by cathepsins B, S, and H with LFQ-MS. Particulars: for # changed residues: cathepsins BSH, pH 5.0, 4 h, 37 °C; for # changed peptides Cr (created) / # changed peptides De (destroyed): q <= 0.05 and >= twofold. It counts as biochemical, human. Here is the method:
Prior to proteolytic mapping, citrullinated antigens were generated by incubating recombinant human antigens—hnRNP A2/B1 (RA33; custom-made as previously described by in ref. [24]), fibrinogen (Cayman Chemical), and vimentin (PeproTech)—with Sf9-purified peptidylarginine deiminase 2 or 4 (PAD2 or PAD4; Inova) at a 17:1 mass ratio in citrullination buffer (100 mM Tris, 1 mM DTT, 5 mM CaCl2, pH 7.5) for 4 h at 37 °C. Native antigens were diluted in the same buffer without PAD enzymes and without incubation at 37 °C to prevent degradation. Citrullination was confirmed by anti-peptidylcitrulline (clone F95, EMD Millipore) immunoblotting. Native and citrullinated antigen pools were split into four 15 µg replicates per condition before digestion (except hnRNP A2/B1, which was digested in double-volume replicates of three and later split into two each, total n = 6, prior to MS) by cathepsins B, S, and H (Millipore Sigma). Digestions were incubated in digestion buffer (citrate phosphate buffer, 4 mM DTT, 1 mM EDTA, pH 5.0) for 4 h at 37 °C. Fibrinogen and vimentin were digested at a 60:1 antigen:cathepsin mass ratio per cathepsin, and hnRNP A2/B1 was digested at a 150:1 antigen:cathepsin mass ratio per cathepsin to achieve full digestion of the protein. Digestion was confirmed by Coomassie Blue staining, and the remaining samples were centrifuged through a 10-kDa-spin filter (Microcon, Millipore) to remove undigested protein fragments. The resulting peptide repertoires were then analyzed by LFQ–MS.
Prior to MS, the samples were reduced and alkylated by incubating in 10 mM Tris (2-Carboxyethyl) phosphine hydrochloride (TCEP, v/v) and 50 mM chloroacetamide (CAA, v/v) for 1 h at room temperature. The samples were then desalted using C18 StageTips (3 M Empore) after acidifying with 1% trifluoroacetic acid (TFA). The peptide solution was vacuum-dried and stored at ‒80 °C. The peptide samples were analyzed on an Orbitrap Fusion Lumos Tribrid mass spectrometer interfaced with an Ultimate 3000 RS Autosampler nanoflow liquid chromatography system (Thermo Scientific). The dried peptides were reconstituted in 15 µL of 0.5% formic acid (FA) and then loaded onto a trap column (Acclaim™ PepMap™ 100 LC C18, 5 μm, 100 μm × 2 cm, Thermo Scientific) at a flow rate of 8 μL/min. Peptides were separated on an analytical column (Easy-Spray™ PepMap™ RSLC C18, 2 μm, 75 μm × 50 cm, Thermo Scientific) at a flow rate of 0.3 μL/min using a linear gradient with mobile phases consisting of 0.1% FA in water and in 95% acetonitrile (ACN) for 120 min. The mass spectrometer was operated in data-dependent acquisition (DDA) mode. The MS1 (precursor ions) scan range for a full survey scan was acquired from 300 to 1800 m/z in the top speed setting with a resolution of 120,000 at an m/z of 200. The AGC target for MS1 was set as 1 × 10^6, and the maximum injection time was 100 milliseconds. The most intense ions with charge states of 2–5 were isolated in a 3-s cycle, fragmented using higher-energy collisional dissociation (HCD) fragmentation with 32% normalized collision energy, and detected at a mass resolution of 50,000 at an m/z of 200. The AGC target for MS/MS (fragments) was set as 5 × 10^4, and the ion filling time was 100 milliseconds. The precursor isolation window was set to 1.6 m/z with a 0.4 m/z offset. The dynamic exclusion was set to 30 s, and singly charged ions were rejected. Internal calibration was carried out using the lock mass option (m/z 445.1200025) from ambient air[59]–[61].
Proteome Discoverer (version 2.4.1.15, Thermo Scientific) was used for the identification and quantitation of proteins. During MS/MS preprocessing, the top 10 peaks in each window of 100 m/z were selected for database search. […]

For the next series, the system named is recombinant human PAD2. The series is described as follows: Citrullination site mapping by mass spectrometry after PAD2 citrullination. It counts as biochemical. Particulars: PAD2 condition.
A further series has as its system recombinant human PAD4. The series is described as follows: Citrullination site mapping by mass spectrometry after PAD4 citrullination. It counts as biochemical. Particulars: PAD4 condition.
[1] abbreviates: share of sequence citrullinated.

Where “and” joins values, the source holds several entries; their conditions need not be identical. Identical values can stand only once.

B1: hnRNP A2/B1: recombinant human hnRNP A2/B1 (RA33), RA autoantigen; native or citrullinated by PAD2 or PAD4 (protein)
chain: MEKTLETVPLERKKREKEQFRKLFIGGLSFETTEESLRNYYEQWGKLTDCVVMRDPASKRSRGFGFVTFSSMAEVDAAMAARPHSIDGRVVEPKRAVAREESGKPGAHVTVKKLFVGGIKEDTEEHHLRDYFEEYGKIDTIEIITDRQSGKKRGFGFVTFDDHDPVDKIVLQKYHTINGHNAEVRKALSRQEMQEVQSSRSGRGGNFGFGDSRGGGGNFGPGPGSNFRGGSDGYGSGRGFGDGYNGYGGGPGGGNFGGSPGYGGGRGGYGGGGPGYGNQGGGYGGGYDNYGGGNYGSGNYNDFGNYNQQPSNYGPMKSGNFGGSRNMGGPYGGGNYGPGGSGGSGGYGGRSRY
As to B1, the “Change Score - PAD2” value with cathepsins B, S, and H (Fig. 3e, native vs PAD2-citrullinated protein) was 58.6466. Further, the “Change Score - PAD4” value with cathepsins B, S, and H (Fig. 3e, native vs PAD4-citrullinated protein) was determined as 42.7938. In the series with cathepsins B, S, and H (PAD2-citrullinated vs native), the “changed peptides (%) Cr (created)” value stood at 48.62%, the “changed peptides (%) De (destroyed)” value is reported as 10.03%, the “changed residues (%)” value amounted to 31.16% and the “# changed residues” value was 110.00. For the same molecule, in the series with cathepsins B, S, and H (PAD2-citrullinated vs native), the “# changed peptides Cr (created)” value worked out at 194 and the “# changed peptides De (destroyed)” value is 40. In addition, in the series on cathepsins B, S, and H (PAD4-citrullinated vs native), the “changed peptides (%) Cr (created)” value came to 24.61%, the “changed peptides (%) De (destroyed)” value came to 18.18%, the “changed residues (%)” value was 24.93% and the “# changed residues” value was found to be 88.00. In addition, in the series on cathepsins B, S, and H (PAD4-citrullinated vs native), the “# changed peptides Cr (created)” value is listed as 111 and the “# changed peptides De (destroyed)” value stood at 82. In addition, the “PAD2 change score (antigen processing change score)” value in the series on cathepsins B, S, and H (percentage of all ProtMap peptides significantly changed between native and PAD2-citrullinated samples) is 58.65 and 58.6466. Besides, the “PAD4 change score (antigen processing change score)” value in the series with cathepsins B, S, and H (percentage of all ProtMap peptides significantly changed between native and PAD4-citrullinated samples) was 42.79 and 42.7938. Also, in the series on recombinant human PAD2, the “# citrulline residues” value is 8. In the series with recombinant human PAD2 (setting [1]), the “citrullination (%)” value worked out at 2.27%. The “# citrulline residues” value in the series on recombinant human PAD4 is recorded as 5. The “citrullination (%)” value with recombinant human PAD4 (setting [1]) amounted to 1.42%.

The values above are taken from paper PMC9958131 (Nature Communications, 2023).
